PubChem BioAssay AID1224830 | NIAID | 2016

Screen: 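Genes whose knock-down alters the TNF-alpha reporter response to LPS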 (primary screen)
Cells: human THP-1 monocytic leukaemia cells, TNF dual-luciferase reporter clone, PMA-differentiated to macrophage-like cells
Reagents: siRNA pool against human genes, 50 nM
Timing: LPS for 4 h, given about 3 days after siRNA transfection
Treatment: bacterial LPS (TLR4 ligand), 10 ng/ml
Detection: 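Ratio of firefly to renilla light, scaled to the plate median and expressed as a robust z-score per replicate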
Reading the numbers: TNF reporter robust z-score: higher = stronger TNF reporter response to LPS
Hit rule: 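Each well counts as active if its z-score is over 2.8 or under -1.5; controls are left without a call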
The deposit covers about 18,000 reagents; below is a part drawn at random. Of all reagents, about 2,900 (16%) are marked active. 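Calls are made per well; low scores hint the gene aids the LPS response, high scores that it dampens it.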 Repeated entries: four replicate wells of each siRNA pool. No sequences are given here.

With knock-down of LNP1 (leukemia NUP98 fusion partner 1) the results were TNF reporter robust z-score 0.17; inactive.
With knock-down of LNP1 (leukemia NUP98 fusion partner 1) the results were TNF reporter robust z-score 1.39; inactive.
Against LNP1 (leukemia NUP98 fusion partner 1), the values are TNF reporter robust z-score 1.34; inactive.
With knock-down of LNP1 (leukemia NUP98 fusion partner 1) the results were TNF reporter robust z-score 1.79; inactive.
Against PLCG1 (phospholipase C gamma 1), the values are TNF reporter robust z-score -1; inactive.
Silencing of PLCG1 (phospholipase C gamma 1) resulted in: TNF reporter robust z-score -0.34; inactive.
Knock-down of PLCG1 (phospholipase C gamma 1) resulted in: TNF reporter robust z-score -0.66; inactive.
With knock-down of PLCG1 (phospholipase C gamma 1) the results were TNF reporter robust z-score -0.45; inactive.
Knock-down of NEK3 (NIMA related kinase 3) resulted in: TNF reporter robust z-score -0.09; inactive.
After knock-down of NEK3 (NIMA related kinase 3) the results were TNF reporter robust z-score 1.97; inactive.
Against NEK3 (NIMA related kinase 3), the entry reads TNF reporter robust z-score 2.33; inactive.
NEK3 (NIMA related kinase 3) gave TNF reporter robust z-score -0.11; inactive.
After knock-down of TATDN1 (TatD DNase domain containing 1), the record shows TNF reporter robust z-score -0.56; inactive.
TATDN1 (TatD DNase domain containing 1) showed TNF reporter robust z-score 0.21; inactive.
TATDN1 (TatD DNase domain containing 1) gave TNF reporter robust z-score -0.3; inactive.
With knock-down of TATDN1 (TatD DNase domain containing 1) the results were TNF reporter robust z-score 1.08; inactive.
After knock-down of COG1 (component of oligomeric golgi complex 1), the screen gave TNF reporter robust z-score 0.2; inactive.
Against COG1 (component of oligomeric golgi complex 1), the entry reads TNF reporter robust z-score 0.04; inactive.
Silencing of COG1 (component of oligomeric golgi complex 1) gave: TNF reporter robust z-score -0.05; inactive.
After knock-down of COG1 (component of oligomeric golgi complex 1) the results were TNF reporter robust z-score 0.08; inactive.

Laid out differently: results already given
{"Target gene":"PLCG1 (phospholipase C gamma 1)","TNF reporter robust z-score":-0.45,"Call":"inactive"}
{"Target gene":"NEK3 (NIMA related kinase 3)","TNF reporter robust z-score":-0.09,"Call":"inactive"}
{"Target gene":"NEK3 (NIMA related kinase 3)","TNF reporter robust z-score":1.97,"Call":"inactive"}
{"Target gene":"NEK3 (NIMA related kinase 3)","TNF reporter robust z-score":2.33,"Call":"inactive"}
{"Target gene":"NEK3 (NIMA related kinase 3)","TNF reporter robust z-score":-0.11,"Call":"inactive"}

The listing continues:
Depletion of ALDH1L2 (aldehyde dehydrogenase 1 family member L2) resulted in: TNF reporter robust z-score 0.77; inactive.
Against ALDH1L2 (aldehyde dehydrogenase 1 family member L2), the values are TNF reporter robust z-score 0.79; inactive.
ALDH1L2 (aldehyde dehydrogenase 1 family member L2) showed TNF reporter robust z-score 1.46; inactive.
Knock-down of ALDH1L2 (aldehyde dehydrogenase 1 family member L2) gave: TNF reporter robust z-score 2.28; inactive.
Knock-down of OVCH1 (ovochymase 1) gave: TNF reporter robust z-score 0.46; inactive.
For OVCH1 (ovochymase 1), the entry reads TNF reporter robust z-score 1.25; inactive.
Knock-down of OVCH1 (ovochymase 1) resulted in: TNF reporter robust z-score 1.8; inactive.
Silencing of OVCH1 (ovochymase 1) resulted in: TNF reporter robust z-score -0.78; inactive.
Against BTBD3 (BTB domain containing 3), the values are TNF reporter robust z-score -0.18; inactive.
Silencing of BTBD3 (BTB domain containing 3) came out at: TNF reporter robust z-score -0.21; inactive.
Silencing of BTBD3 (BTB domain containing 3) came out at: TNF reporter robust z-score 0.04; inactive.
BTBD3 (BTB domain containing 3) showed TNF reporter robust z-score -0.22; inactive.
